Assay results taken from patent publication US20090105467.
No signal at the amounts used counts as a negative. For some of these results: Where a protein sequence is shown, tags need not be part of it. The exact form of at least one protein or probe is not confirmed. For some of these results: Results from cells or extracts need not show a direct contact.

Key:
[1] = test system: HeLa cell crude extract proteins (Homo sapiens); assay: EMSA; settings: protein in an extract, label: 5'-32P
[2] = biological target: T1, RNase H (Escherichia coli) (UniProt P0A7Y4); assay: enzyme reaction in vitro; settings: purified recombinant protein, label: 5'-32P on target RNA
T1 sequence (looked up, limits assumed): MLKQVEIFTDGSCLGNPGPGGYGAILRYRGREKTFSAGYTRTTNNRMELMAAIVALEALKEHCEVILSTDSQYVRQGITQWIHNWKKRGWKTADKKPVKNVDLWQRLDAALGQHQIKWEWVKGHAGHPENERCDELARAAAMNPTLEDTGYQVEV

Sequence: TTTTTTTTTTTTTTTTTT [2'F-riboT18]
- binding result ([1]; 2'-F (ribo) throughout, no appreciable interaction, synthetic backbone, variant of dT18): no binding

Sequence: UUUUUUUUUUUUUUUUUU [araU18 + rA18 (no duplex)]
- activity on this sequence ([2]; all beta-D-arabinose in test strand, no duplex formed, variant of dT18/rA18): not active

Sequence: UUUUUUUUUUUUUUUUUU [araU18]
- binding result ([1]; all beta-D-arabinose, no appreciable interaction, synthetic backbone, variant of dT18): no binding

Sequence: UUUUUUUUUUUUUUUUUU / AAAAAAAAAAAAAAAAAA [rU18/rA18]
- activity on this sequence ([2]; duplex formed, not cleaved, variant of dT18/rA18): not active

Sequence: TTTTTTTTTTTTTTTTTT [dT18]
- binding result ([1]; no appreciable interaction, single-stranded DNA): no binding

Sequence: TTTTTTTTTTTTTTTTTT [2'F-araT18/rA18]
- activity on this sequence ([2]; all 2'-deoxy-2'-fluoro-beta-D-arabinose (2'F-ANA) in test strand, 2.5 mM MgCl2, 22 C, DNA:RNA hybrid, variant of dT18/rA18): active

Sequence: TTTTTTTTTTTTTTTTTT [dT18/rA18]
- activity on this sequence ([2]; 2.5 mM MgCl2, 22 C, DNA:RNA hybrid): active

Sequence: TTTTTTTTTTTTTTTTTT [2'F-araT18]
- binding result ([1]; all 2'F-ANA, no appreciable interaction, synthetic backbone, variant of dT18): no binding

Sequence: TTTTTTTTTTTTTTTTTT [PS-dT18]
- binding result ([1]; PS throughout, essentially all bound, 100 mM KCl, 1 mM MgCl2, 25 C, single-stranded DNA, variant of dT18): binds

Sequence: TTTTTTTTTTTTTTTTTT [PS-dT18/rA18]
- activity on this sequence ([2]; PS throughout test strand, 2.5 mM MgCl2, 22 C, DNA:RNA hybrid, variant of dT18/rA18): active
